Results from one PubChem assay

From PubChem BioAssay record AID504749 (NCATS, 2011).

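A panel of P. falciparum strains inside erythrocytes is exposed to compounds for three days, then a DNA-binding dye reports the amount of parasite DNA.
Each compound was titrated across a series from about 0.000037 to 29 µM.
The number is the fitted AC50, the concentration giving a half-maximal change in signal; a lower value means higher potency, whether the curve shows a decrease or an increase.
Calls follow the curve class and fit quality: every row here is inconclusive, covering signal-raising curves and weak, poorly fitted, partial or highest-dose-only inhibition curves.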

Values are in µM.
Every entry below has the call inconclusive.
These entries are mostly ones the record files as inconclusive; other results of the assay are not listed here.
Potencies fitted to partial, single-point or poorly fitting curves are rough.
Some entries filed as inconclusive have a full curve.

structure,condition,potency (µM),curve
O.O.O.O.O.O.O.O=S(=O)([O-])[O-].[Co+2],CP237,17.78,"inhibitor, single point"
O.O.O.O.O.O.O.O=S(=O)([O-])[O-].[Co+2],CP325,7.569,"inhibitor, partial curve"
O.O.O.O.O.O.O.O=S(=O)([O-])[O-].[Co+2],HB3,10,"inhibitor, single point"
O.O.O.O.O.O.O.O=S(=O)([O-])[O-].[Co+2],CP268,12,"inhibitor, partial curve"
O.O.O.O.O.O.O.O=S(=O)([O-])[O-].[Co+2],CP262,12,"inhibitor, single point"
CN1CCN(C2Cc3ccccc3Sc3ccc(Cl)cc32)CC1 (centres undefined),DIV30,3.381,"inhibitor, partial curve, poor fit"
CN1CCN(C2Cc3ccccc3Sc3ccc(Cl)cc32)CC1 (centres undefined),PC49,12.59,"inhibitor, single point"
CN1CCN(C2Cc3ccccc3Sc3ccc(Cl)cc32)CC1 (centres undefined),DIV14,5.358,"inhibitor, partial curve"
CN1CCN(C2Cc3ccccc3Sc3ccc(Cl)cc32)CC1 (centres undefined),CP203,6.012,"inhibitor, partial curve"
CN1CCN(C2Cc3ccccc3Sc3ccc(Cl)cc32)CC1 (centres undefined),TAB113,10,"inhibitor, single point"
CN1CCN(C2Cc3ccccc3Sc3ccc(Cl)cc32)CC1 (centres undefined),PC26,2.393,"inhibitor, full curve"
CN1CCN(C2Cc3ccccc3Sc3ccc(Cl)cc32)CC1 (centres undefined),ECU,17.78,"inhibitor, single point"
CN1CCN(C2Cc3ccccc3Sc3ccc(Cl)cc32)CC1 (centres undefined),CP260,11.22,"inhibitor, single point"
CN1CCN(C2Cc3ccccc3Sc3ccc(Cl)cc32)CC1 (centres undefined),DIV17,4.776,"inhibitor, partial curve"
CN1CCN(C2Cc3ccccc3Sc3ccc(Cl)cc32)CC1 (centres undefined),TAB109,3.162,"inhibitor, full curve, poor fit"
CN1CCN(C2Cc3ccccc3Sc3ccc(Cl)cc32)CC1 (centres undefined),CP215,19.01,"inhibitor, single point"
CN1CCN(C2Cc3ccccc3Sc3ccc(Cl)cc32)CC1 (centres undefined),PAD,17.78,"inhibitor, single point"
CN1CCN(C2Cc3ccccc3Sc3ccc(Cl)cc32)CC1 (centres undefined),CP297,5.358,"inhibitor, partial curve, poor fit"
CN1CCN(C2Cc3ccccc3Sc3ccc(Cl)cc32)CC1 (centres undefined),AS120,11.22,"inhibitor, single point"
CN1CCN(C2Cc3ccccc3Sc3ccc(Cl)cc32)CC1 (centres undefined),GB4,12,"inhibitor, partial curve"
CN1CCN(C2Cc3ccccc3Sc3ccc(Cl)cc32)CC1 (centres undefined),CP194,15.1,"inhibitor, partial curve"
CN1CCN(C2Cc3ccccc3Sc3ccc(Cl)cc32)CC1 (centres undefined),Dd2,12.59,"inhibitor, partial curve"
CN1CCN(C2Cc3ccccc3Sc3ccc(Cl)cc32)CC1 (centres undefined),P93_24,12.59,"inhibitor, partial curve"
CN1CCN(C2Cc3ccccc3Sc3ccc(Cl)cc32)CC1 (centres undefined),CP237,12.59,"inhibitor, single point"
CN1CCN(C2Cc3ccccc3Sc3ccc(Cl)cc32)CC1 (centres undefined),CP268,8.492,"inhibitor, partial curve, poor fit"
CN1CCN(C2Cc3ccccc3Sc3ccc(Cl)cc32)CC1 (centres undefined),CP286,12.59,"inhibitor, partial curve"
CN1CCN(C2Cc3ccccc3Sc3ccc(Cl)cc32)CC1 (centres undefined),CP217,11.22,"inhibitor, single point"
CN1CCN(C2Cc3ccccc3Sc3ccc(Cl)cc32)CC1 (centres undefined),CP335,12,"inhibitor, single point"
CN1CCN(C2Cc3ccccc3Sc3ccc(Cl)cc32)CC1 (centres undefined),SC27B,10,"inhibitor, single point"
CN1CCN(C2Cc3ccccc3Sc3ccc(Cl)cc32)CC1 (centres undefined),AA1029,5.012,"inhibitor, partial curve"
CC(Cc1ccccc1)NCc1ccccc1Cl (centres undefined),CP252,14.13,"inhibitor, single point"
CC(Cc1ccccc1)NCc1ccccc1Cl (centres undefined),ATS95,11.22,"inhibitor, single point"
CC(Cc1ccccc1)NCc1ccccc1Cl (centres undefined),CP256,5.012,"inhibitor, partial curve"
CC(Cc1ccccc1)NCc1ccccc1Cl (centres undefined),ATS189,12.59,"inhibitor, single point"
CC(Cc1ccccc1)NCc1ccccc1Cl (centres undefined),DIV17,10.69,"inhibitor, partial curve"
CC(Cc1ccccc1)NCc1ccccc1Cl (centres undefined),AS120,11.22,"inhibitor, single point"
CC(Cc1ccccc1)NCc1ccccc1Cl (centres undefined),N140,11.22,"inhibitor, single point"
CC(Cc1ccccc1)NCc1ccccc1Cl (centres undefined),ICS,14.13,"inhibitor, single point"
CC(Cc1ccccc1)NCc1ccccc1Cl (centres undefined),GB4,3.381,"inhibitor, partial curve"
CC(Cc1ccccc1)NCc1ccccc1Cl (centres undefined),CP194,16.94,"inhibitor, single point"
CC(Cc1ccccc1)NCc1ccccc1Cl (centres undefined),CP260,12.59,"inhibitor, single point"
CC(Cc1ccccc1)NCc1ccccc1Cl (centres undefined),CP269,21.33,"inhibitor, partial curve, poor fit"